Consider one molecule from patent publication US20070281327A1 (published 2007).

The target of this test is monkey Mpl expressed on CHO cells (CHO-monkey Mpl) (monkey). Description: flow cytometry on CHO-monkey Mpl cells.

Results are given in words; binding and its absence hold for the method and conditions named. Binding calls can cover weak binding; strength is not graded here.

B1: VA130 IgG (mouse monoclonal anti-human Mpl antibody VA130) (antibody, V domains shown)
VH: QVQLQQSGPELVKPGASVKISCKASGYAFSSSWMNWVKQRPGKGLEWIGRIYPGDGDTNYNGKFKGKATLTADKSSSTAYIQLSSLTSEDSAVYFCARGYADYSFAYWGQGTLVTVSA
VL: DIVMTQAAPSVPVTPGESVSISCRSSKSLLHSNGNTYLYWFLQRPGQSPQLLIYRMSNLASGVPDRFSGSGSGTAFTLRISRVEAEDVGVYYCMQHLEYPYTFGSGTKLEIK
notes: Whole mouse IgG from a hybridoma; also called VA130 antibody; VA130 anti-human Mpl antibody
Turning to B1, the binding entry is on record as “binds”.
